Taken from: PubChem BioAssay AID1671195 (Yale University, 2021)
This is an unselected part of about 22,000 reagents. About 1,510 of them (6.9%) were called active. 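Active includes knockdowns raising or lowering LDL uptake; positive z-scores mean more uptake, negative mean less.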

Test: 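Knockdowns that increase or decrease uptake of fluorescent LDL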 (primary screen)
Cell system: human Huh7 hepatoma cells
Knock-down reagent: siRNA pool against human genes, 18 nM
Duration: about 2 to 2.5 days of knockdown, then 8 h LDL uptake
Challenge: DiI-labelled LDL at 30 µg/ml for 8 h, in lipoprotein-deficient serum medium
Measurement: 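Fluorescent LDL signal imaged in cells, scaled to the plate median, robust z-score for each replicate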
Direction: robust z-score: higher = more LDL uptake after knockdown
Hit rule: 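Active when two or more replicates show a robust z-score above 2 or below -2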

{"target gene": "LOC389019 (retired record)", "robust z-score, replicate 1": -0.153, "robust z-score, replicate 2": -0.103, "robust z-score, replicate 3": -0.416, "activity call": "inactive"}
{"target gene": "LOC343384 (retired record)", "robust z-score, replicate 1": 3.07, "robust z-score, replicate 2": 1.48, "robust z-score, replicate 3": 1.86, "activity call": "inactive"}
{"target gene": "NAIF1", "robust z-score, replicate 1": 0.254, "robust z-score, replicate 2": 0.124, "robust z-score, replicate 3": 0.287, "activity call": "inactive"}
{"target gene": "SOX10", "robust z-score, replicate 1": -0.921, "robust z-score, replicate 2": -0.598, "robust z-score, replicate 3": -0.95, "activity call": "inactive"}
{"target gene": "CD247", "robust z-score, replicate 1": -0.152, "robust z-score, replicate 2": -0.256, "robust z-score, replicate 3": -0.137, "activity call": "inactive"}
{"target gene": "SLC38A7", "robust z-score, replicate 1": -0.782, "robust z-score, replicate 2": 1.12, "robust z-score, replicate 3": -0.738, "activity call": "inactive"}
{"target gene": "CLNK", "robust z-score, replicate 1": 1.82, "robust z-score, replicate 2": 3.41, "robust z-score, replicate 3": 3.32, "activity call": "active"}
{"target gene": "CCDC28A", "robust z-score, replicate 1": -0.425, "robust z-score, replicate 2": 0.585, "robust z-score, replicate 3": 1.4, "activity call": "inactive"}
{"target gene": "LOC283801 (retired record)", "robust z-score, replicate 1": 1.7, "robust z-score, replicate 2": 1.29, "robust z-score, replicate 3": 1.33, "activity call": "inactive"}
{"target gene": "LSM14B", "robust z-score, replicate 1": -0.744, "robust z-score, replicate 2": 0.423, "robust z-score, replicate 3": 0.36, "activity call": "inactive"}
{"target gene": "ZNF441", "robust z-score, replicate 1": 0.835, "robust z-score, replicate 2": 0.393, "robust z-score, replicate 3": 1.1, "activity call": "inactive"}
{"target gene": "NIPSNAP2", "robust z-score, replicate 1": -0.273, "robust z-score, replicate 2": -0.618, "robust z-score, replicate 3": -0.921, "activity call": "inactive"}
